Assay results taken from US20230235001A1.
These are yes or no findings as the source states them, for the method shown. Binding seen in cells or lysates may run through a third protein. Some entries that bind do so weakly or less than the wild type. Tags and fused reporters may be left off the sequences shown.

Sequences of proteins named here, by UniProt entry; tags and fusion partners are left off. A change or cut given only in a name is not applied to a line headed by its entry. A line that says so, or that is headed by a name, gives the form on record, which may keep a tag or linker.
HA-tagged BMPR2-E376K mutant (bone morphogenetic protein type 2 receptor, glutamic acid 376 mutated to lysine) (Q13873, form named): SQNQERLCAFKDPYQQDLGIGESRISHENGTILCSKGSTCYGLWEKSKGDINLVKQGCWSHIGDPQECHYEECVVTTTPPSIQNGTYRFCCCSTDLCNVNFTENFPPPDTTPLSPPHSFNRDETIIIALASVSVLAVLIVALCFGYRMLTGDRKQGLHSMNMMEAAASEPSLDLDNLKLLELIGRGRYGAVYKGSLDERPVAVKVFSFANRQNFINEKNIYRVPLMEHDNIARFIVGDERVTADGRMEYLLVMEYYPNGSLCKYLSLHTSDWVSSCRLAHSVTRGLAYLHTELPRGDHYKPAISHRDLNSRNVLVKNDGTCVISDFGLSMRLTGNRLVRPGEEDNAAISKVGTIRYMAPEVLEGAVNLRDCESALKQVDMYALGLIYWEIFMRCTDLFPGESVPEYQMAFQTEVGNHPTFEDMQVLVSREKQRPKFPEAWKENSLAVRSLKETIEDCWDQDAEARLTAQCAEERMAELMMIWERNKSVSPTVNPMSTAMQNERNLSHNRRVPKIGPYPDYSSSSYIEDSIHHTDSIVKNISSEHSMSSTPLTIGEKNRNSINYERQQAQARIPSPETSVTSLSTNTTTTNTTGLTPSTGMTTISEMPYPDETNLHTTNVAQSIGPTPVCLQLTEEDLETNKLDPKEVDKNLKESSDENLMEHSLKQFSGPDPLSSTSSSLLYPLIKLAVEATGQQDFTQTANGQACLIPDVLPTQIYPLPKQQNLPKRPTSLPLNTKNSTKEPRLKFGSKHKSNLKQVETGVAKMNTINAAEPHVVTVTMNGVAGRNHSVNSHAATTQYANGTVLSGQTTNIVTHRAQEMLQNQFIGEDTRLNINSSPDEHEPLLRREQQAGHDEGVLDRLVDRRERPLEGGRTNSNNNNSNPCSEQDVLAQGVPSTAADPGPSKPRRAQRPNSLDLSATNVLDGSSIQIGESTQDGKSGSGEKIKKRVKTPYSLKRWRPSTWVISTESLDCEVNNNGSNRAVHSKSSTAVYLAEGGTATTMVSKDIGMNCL

Tests used:
[1] = target: T1, V5-tagged wild-type ACVR1 (activin A type I receptor) (UniProt Q04771); assay: co-immunoprecipitation (FIG. 3a), no BMP ligand
T1 sequence (looked up): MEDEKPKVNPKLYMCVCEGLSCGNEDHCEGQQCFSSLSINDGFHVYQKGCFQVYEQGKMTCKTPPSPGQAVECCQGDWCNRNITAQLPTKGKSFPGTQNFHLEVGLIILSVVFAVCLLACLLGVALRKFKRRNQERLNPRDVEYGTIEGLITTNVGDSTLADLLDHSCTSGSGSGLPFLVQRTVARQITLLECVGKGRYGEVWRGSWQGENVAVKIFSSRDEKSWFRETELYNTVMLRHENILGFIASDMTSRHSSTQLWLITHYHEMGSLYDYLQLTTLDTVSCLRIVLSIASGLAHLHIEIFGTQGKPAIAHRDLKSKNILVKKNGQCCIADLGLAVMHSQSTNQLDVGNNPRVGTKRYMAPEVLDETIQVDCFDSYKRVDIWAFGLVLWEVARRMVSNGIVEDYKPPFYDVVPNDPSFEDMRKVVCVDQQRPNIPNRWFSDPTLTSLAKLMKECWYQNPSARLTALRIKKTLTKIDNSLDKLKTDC

[2] = target: T1, V5-tagged wild-type ACVR1 (activin A type I receptor); assay: co-immunoprecipitation, figure legend of FIG. 3a
[3] = target: T1, V5-tagged wild-type ACVR1 (activin A type I receptor); assay: co-immunoprecipitation (anti-HA agarose, western blot) from transfected HEK293T cells, no BMP ligand

Measured: binding

HA-tagged BMPR2-E376K mutant (bone morphogenetic protein type 2 receptor, glutamic acid 376 mutated to lysine) (from UniProt Q13873 27-1038)
binds: all assays above
